Data from the supplement of paper PMC3682954.
Several values for one entry are separate records, joined by “and”; a condition that tells them apart may be missing. Equal values may be shown once. Where a name gives a salt, the structure may show the parent alone. ± gives the standard deviation of the averaged measurements. The list shows a part of the results. Single values are uncertain, as repeats are few or missing.

Test system: RAW 264.7
Assay: HMGB1-induced TNF-alpha production relative to HMGB1-stimulated control; higher = more TNF-alpha secretion (less inhibition)
Conditions: stimulus: HMGB1 5 ug/ml, 18 h
[1] = compound concentration: 1 ug/ml

SMILES	HMGB1-induced TNF-alpha production (compound concentration: 3 uM)	HMGB1-induced TNF-alpha production [1]
O=C(NCNC(=O)NC1C(=O)NC(=O)N1CO)NC1C(=O)NC(=O)N1CO (stereo not given) [Imidurea]	88.1%	
CC(=O)O[C@H]1CC[C@@]2(C)C(=CC[C@@H]3[C@@H]2CC[C@]2(C)C(=O)CC[C@@H]32)C1	84.5%	
CC(=O)O[C@H]1CC[C@@]2(C)C(=CC[C@@H]3[C@@H]2CC[C@]2(C)C(=O)CC[C@@H]32)C1 [Dehydroisoandosterone 3-acetate]	123%	
OCc1cnc[nH]1 [4-Imidazolemethanol hydrochloride]	87.9%	
O=C(O)CC[N+](=O)[O-] [BOVINOCIDIN (3-nitropropionic acid)]	88.2%	
O=C(O)CC[N+](=O)[O-] [3-Nitropropionic acid]	129%	
Oc1ccc2c3c1O[C@H]1[C@@H](O)CC[C@@]4(O)[C@@H](C2)N(CC2CCC2)CC[C@]314 [Nalbuphine hydrochloride]	69.6%	
Oc1ccc2c3c1O[C@H]1[C@@H](O)CC[C@@]4(O)[C@@H](C2)N(CC2CCC2)CC[C@]314 [Nalbuphine]	95.4 ± 8.1%	
Oc1ccc2c3c1O[C@H]1[C@@H](O)CC[C@@]4(O)[C@@H](C2)N(CC2CCC2)CC[C@]314	95.6%	
CC(N)C(O)c1ccc(O)c(O)c1 (single isomer, unassigned; (-)) [(-)-alpha-Methylnorepinephrine]	55.3%	
CC1=C2C3OC(=O)C(C)C3CCC2(C)C=CC1=O (stereo not given) [a-Santonin]		46%
CC1C=CC=CCCC=CC=CC=CC=CC(OC2OC(C)C(O)C(N)C2O)CC2OC(O)(CC(O)C(O)CCC(O)CC(O)CC(O)CC(=O)OC(C)C(C)C1O)CC(O)C2C(=O)O (stereo not given)	85.5%	
CC1C=CC=CCCC=CC=CC=CC=CC(OC2OC(C)C(O)C(N)C2O)CC2OC(O)(CC(O)C(O)CCC(O)CC(O)CC(O)CC(=O)OC(C)C(C)C1O)CC(O)C2C(=O)O (stereo not given) [Nystatin]	88.4%	
C[C@]12CC[C@H](O)CC1=CC[C@@H]1[C@@H]2CC[C@]2(C)C(=O)CC[C@@H]12 [Dehydroepiandrosterone]	102%	
CN1C(=O)CN=C(c2ccccc2)c2cc(Cl)ccc21 [Diazepam]	104%	
Cc1cc([C@@H]2CCCN2C)on1 [ABT-418 hydrochloride]	94.2%	
CC(C)[C@@]1(NC(=O)[C@@H]2C=C3c4cccc5[nH]cc(c45)C[C@H]3N(C)C2)O[C@@]2(O)[C@@H]3CCCN3C(=O)[C@H](Cc3ccccc3)N2C1=O [Ergocristine]		58%
COc1ccc2c(c1)[C@@]13CCCC[C@H]1[C@@H](C2)NCC3 [3-Methoxy-morphanin hydrochloride]	95.3%	
COc1cc2c(c(OC)c1OC)-c1ccc(OC)c(=O)cc1[C@@H](NC(C)=O)CC2	171 ± 23%	
COc1cc2c(c(OC)c1OC)-c1ccc(OC)c(=O)cc1[C@@H](NC(C)=O)CC2 [Colchicine]	133 ± 19%	75.4%
N#C[C@H](O[C@@H]1O[C@H](CO[C@@H]2O[C@H](CO)[C@@H](O)[C@H](O)[C@H]2O)[C@@H](O)[C@H](O)[C@H]1O)c1ccccc1	91.5%	
CC[C@@H](CO)NC(=O)[C@@H]1C=C2c3cccc4c3c(cn4C)C[C@H]2N(C)C1	81.9%	
CC[C@@H](CO)NC(=O)[C@@H]1C=C2c3cccc4c3c(cn4C)C[C@H]2N(C)C1 [Methysergide]	108%	
CC[C@@H](CO)NC(=O)[C@@H]1C=C2c3cccc4c3c(cn4C)C[C@H]2N(C)C1 [Methysergide maleate]	97.6%	
CC(C)C1CNC(C(=O)O)C1CC(=O)O (stereo not given) [Dihydrokainic acid]	87.7%	

SMILES	HMGB1-induced TNF-alpha production (compound concentration: 3 uM)	HMGB1-induced TNF-alpha production [1]
CCCCCC[C@H]1C(=O)O[C@H](C)[C@H](NC(=O)c2cccc(NC=O)c2O)C(=O)O[C@@H](C)[C@@H]1OC(=O)CC(C)C [Antimycin A]	65%	
CCCN(CCC)[C@H]1CCc2c(F)ccc(O)c2C1 [S(-)-UH-301 hydrochloride]	99%	
C=C1C/C(=C/C)C(=O)O[C@@H]2CCN3CC=C(COC(=O)[C@]1(C)O)[C@H]23 [Seneciphylline]		78%
c1ccc2c(c1)OCC(C1=NCCN1)O2 (stereo not given) [Idazoxan]	100%	
c1ccc2c(c1)OCC(C1=NCCN1)O2 (stereo not given) [Idazoxan hydrochloride]	101 ± 7.8%	
c1ccc2c(c1)OCC(C1=NCCN1)O2 (stereo not given)	77%	
C[C@]12CC[C@@H](O)C[C@@H]1CC[C@@H]1[C@@H]2CC[C@]2(C)[C@@H](C(=O)CO)CC[C@@H]12 [3-alpha,21-Dihydroxy-5-alpha-pregnan-20-one]	101%	
CC1=C2C(=CO[C@H](C)[C@H]2C)C(O)=C(C(=O)O)C1=O	81.6%	
CCCN(CCC)C1CCc2cccc(O)c2C1 (racemic) [(±)-8-Hydroxy-DPAT hydrobromide]	84.7%	
CC[N+]1(C)CCCC(OC(=O)C(O)(c2ccccc2)c2ccccc2)C1 (stereo not given)	84.2%	
CC[N+]1(C)CCCC(OC(=O)C(O)(c2ccccc2)c2ccccc2)C1 (stereo not given) [Pipenzolate bromide]	87.4%	
c1ccc2c(c1)Nc1ccccc1S2	109%	
C[C@]12CC[C@H]3[C@@H](CCC4=CC(=O)CC[C@@]43C)[C@@H]1CC[C@@H]2O	100%	
C[C@]12CC[C@H]3[C@@H](CCC4=CC(=O)CC[C@@]43C)[C@@H]1CC[C@@H]2O [Testosterone]	96.8%	
N=C(NCCC[C@H](N)C(=O)O)N[N+](=O)[O-] [NG-Nitro-L-arginine]	116%	
Cc1ccc(/N=C/N(C)/C=N/c2ccc(C)cc2C)c(C)c1	95%	
CCCN(CCC)C1Cc2cc(OC)c(OC)cc2C1	103%	
O=c1c2ccccc2[se]n1-c1ccccc1	82.2 ± 3.2%	
O=c1c2ccccc2[se]n1-c1ccccc1 [Ebselen]	66.4 ± 1.3%	
O=C1c2ccccc2-c2cccc3cccc1c23	84.7%	
COC(=O)N1CCN(C(=O)Cc2ccc(Cl)c(Cl)c2)C(CN2CCCC2)C1 (stereo not given)	103% and 86.3%	
NCC(O)c1ccc(O)cc1 (stereo not given)	98.5%	
CC(C)NC(C)Cc1ccc(I)cc1 (stereo not given) [Iofetamine hydrochloride]	118%	
Nc1ncnc2c1ncn2[C@@H]1O[C@H](CI)[C@@H](O)[C@H]1O [5'-Iodo-5'-deoxyadenosine]		67.3%

13 successive entries from above, for reference:
SMILES	HMGB1-induced TNF-alpha production (compound concentration: 3 uM)	HMGB1-induced TNF-alpha production [1]
CCCN(CCC)[C@H]1CCc2c(F)ccc(O)c2C1 [S(-)-UH-301 hydrochloride]	99%	
C=C1C/C(=C/C)C(=O)O[C@@H]2CCN3CC=C(COC(=O)[C@]1(C)O)[C@H]23 [Seneciphylline]		78%
c1ccc2c(c1)OCC(C1=NCCN1)O2 (stereo not given) [Idazoxan]	100%	
c1ccc2c(c1)OCC(C1=NCCN1)O2 (stereo not given) [Idazoxan hydrochloride]	101 ± 7.8%	
c1ccc2c(c1)OCC(C1=NCCN1)O2 (stereo not given)	77%	
C[C@]12CC[C@@H](O)C[C@@H]1CC[C@@H]1[C@@H]2CC[C@]2(C)[C@@H](C(=O)CO)CC[C@@H]12 [3-alpha,21-Dihydroxy-5-alpha-pregnan-20-one]	101%	
CC1=C2C(=CO[C@H](C)[C@H]2C)C(O)=C(C(=O)O)C1=O	81.6%	
CCCN(CCC)C1CCc2cccc(O)c2C1 (racemic) [(±)-8-Hydroxy-DPAT hydrobromide]	84.7%	
CC[N+]1(C)CCCC(OC(=O)C(O)(c2ccccc2)c2ccccc2)C1 (stereo not given)	84.2%	
CC[N+]1(C)CCCC(OC(=O)C(O)(c2ccccc2)c2ccccc2)C1 (stereo not given) [Pipenzolate bromide]	87.4%	
c1ccc2c(c1)Nc1ccccc1S2	109%	
C[C@]12CC[C@H]3[C@@H](CCC4=CC(=O)CC[C@@]43C)[C@@H]1CC[C@@H]2O	100%	
C[C@]12CC[C@H]3[C@@H](CCC4=CC(=O)CC[C@@]43C)[C@@H]1CC[C@@H]2O [Testosterone]	96.8%	
